No constants are given. Whether binding was seen depends on the method and setting. Some entries that bind do so weakly or less than the wild type.
Experiments:
Assay in all cases: co-reconstitution into liposomes with flotation on a density gradient
full-length Stx2 (human) = full-length Stx2 (human) (UniProt P32856)
full-length Stx3 = target: T1, full-length Stx3 (UniProt Q13277)
T1 sequence: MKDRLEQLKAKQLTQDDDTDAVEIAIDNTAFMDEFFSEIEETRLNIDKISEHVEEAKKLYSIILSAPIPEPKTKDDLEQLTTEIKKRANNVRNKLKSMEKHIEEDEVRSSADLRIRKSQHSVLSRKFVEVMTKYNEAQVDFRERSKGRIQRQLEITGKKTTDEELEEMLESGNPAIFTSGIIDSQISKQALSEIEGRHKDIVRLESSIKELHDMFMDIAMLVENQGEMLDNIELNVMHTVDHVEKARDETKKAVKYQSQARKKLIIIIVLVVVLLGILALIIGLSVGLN

The chains behind the UniProt entries cited, without tags or fusion partners. Residues count along the entry.
UniProt P32856, whole entry: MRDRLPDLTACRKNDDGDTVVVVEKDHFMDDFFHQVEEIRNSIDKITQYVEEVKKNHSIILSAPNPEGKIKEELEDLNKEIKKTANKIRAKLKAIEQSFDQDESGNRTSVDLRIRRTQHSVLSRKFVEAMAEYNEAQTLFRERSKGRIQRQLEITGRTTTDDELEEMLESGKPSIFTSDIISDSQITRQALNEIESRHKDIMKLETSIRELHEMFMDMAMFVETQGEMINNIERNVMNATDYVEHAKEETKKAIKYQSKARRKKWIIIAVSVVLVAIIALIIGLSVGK
UniProt Q12846, whole entry: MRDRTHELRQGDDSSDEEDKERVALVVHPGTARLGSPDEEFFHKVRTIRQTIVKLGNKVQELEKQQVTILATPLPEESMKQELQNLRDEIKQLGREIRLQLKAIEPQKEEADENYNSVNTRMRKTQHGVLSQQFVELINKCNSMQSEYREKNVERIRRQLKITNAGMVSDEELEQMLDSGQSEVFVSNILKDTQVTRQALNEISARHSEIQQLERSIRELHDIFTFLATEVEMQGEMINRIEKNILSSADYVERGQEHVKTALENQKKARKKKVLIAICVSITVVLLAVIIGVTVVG
UniProt Q8R570, 115-412: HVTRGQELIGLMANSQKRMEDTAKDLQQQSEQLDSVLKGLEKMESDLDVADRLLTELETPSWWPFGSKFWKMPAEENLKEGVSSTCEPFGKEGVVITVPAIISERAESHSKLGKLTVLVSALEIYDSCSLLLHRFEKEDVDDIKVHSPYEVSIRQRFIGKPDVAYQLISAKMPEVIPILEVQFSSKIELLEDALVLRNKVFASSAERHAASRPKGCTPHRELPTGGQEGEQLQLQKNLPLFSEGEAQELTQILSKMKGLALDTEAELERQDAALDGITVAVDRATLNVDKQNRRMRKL

full-length Stx4 = full-length Stx4 (UniProt Q12846)

Measured: binding

SNAP47_(115-412) (from UniProt Q8R570 115-412) (domain or fragment)
binds: all assays above

B1: full-length SNAP23 (protein, UniProt O00161 1-211)
chain: MDNLSSEEIQQRAHQITDESLESTRRILGLAIESQDAGIKTITMLDEQKEQLNRIEEGLDQINKDMRETEKTLTELNKCCGLCVCPCNRTKNFESGKAYKTTWGDGGENSPCNVVSKQPGPVTNGQLQQPTTGAASGGYIKRITNDAREDEMEENLTQVGSILGNLKDMALNIGNEIDAQNPQIKRITDKADTNRDRIDIANARAKKLIDS
binds: all assays above

From article doi:10.1101/2022.05.30.494040
